Assay results taken from patent US8796201B2 (The Board of Trustees of the Leland Stanford Junior …, priority 2002, dated 2014).
For some of these results: At least one peptide structure holds a part that was inferred or is arguable (an end, a ring closure or a residue). For some of these results: At least one read-out could not be matched to a standard name with certainty. Some entries share one result that the patent states for a list of compounds. Where no end group is shown, it is not given here.

B1: MX PEP: novel recombinant prolyl endopeptidase from Myxococcus xanthus (Genbank AF127082, SEQ ID NO:47) (protein, listed as Myxococcus xanthus)
chain: MSYPATRAEQVVDTLHGVQVADPYRWLEDEKAPEVQTWMTAQNAHAREALAKFPGREALAARFKELFYTDSVSTPSRRNGRFFYVRTHKDKEKAILYWRQGESGQEKVLLDPNGWSKDGTVSLGTWAVSWDGKKVAFAQKPNAADEAVLHVIDVDSGEWSKVDVIEGGKYATPKWTPDSKGFYYEWLPTDPSIKVDERPGYTTIRYHTLGTEPSKDTVVHERTGDPTTFLQSDLSRDGKYLFVYILRGWSENDVYWKRPGEKDFRLLVKGVGAKYEVHAWKDRFYVLTDEGAPRQRVFEVDPAKPARASWKEIVPEDSSASLLSVSIVGGHLSLEYLKDATSEVRVATLKGKPVRTVQLPGVGAASNLMGLEDLDDAYYVFTSFTTPRQIYKTSVSTGKSELWAKVDVPMNPEQYQVEQVFYASKDGTKVPMFVVHRKDLKRDGNAPTLLYGYGGFNVNMEANFRSSILPWLDAGGVYAVANLRGGGEYGKAWHDAGRLDKKQNVFDDFHAAAEYLVQQKYTQPKRLAIYGGSNGGLLVGAAMTQRPELYGAVVCAVPLLDMVRYHLFGSGRTWIPEYGTAEKPEDFKTLHAYSPYHHVRPDVRYPALLMMAADHDDRVDPMHARKFVAAVQNSPGNPATALLRIEANAGHGGADQVAKAIESSVDLYSFLFQVLDVQGAQGGVAAQGR

Legend:
[1] = tested on: gluten-reactive T cells from Celiac Sprue patients; assay: Stimulation of patient-derived gluten-reactive T cells; assay type: cell-based, human; conditions: T cells from virtually all Celiac Sprue patients tested
[2] = Kinetic analysis with reference substrate Succinyl-Ala-Pro-pNA; assay type: biochemical; conditions: Succinyl-Ala-Pro-p-nitroanilide hydrolysis
Protocol: (§1) Activity Assays. Post-proline cleavage activity was measured using Z-Gly-Pro-p-nitroanilide and Succinyl-Ala-Pro-p-nitroanilide (Bachem, CA). Z-Gly-Pro-pNA was dissolved in a PBS:water:dioxane (8:1.2:0.8) assay mixture. The concentration of Z-Gly-Pro-pNA was varied from 100-600 μM. Although the substrate Z-Gly-Pro-pNA was effective in detecting enzyme activity, its insolubility at higher concentrations precluded kinetic measurements under substrate-saturated conditions. In contrast, Succinyl-Ala-Pro-pNA, had the advantage of high water solubility at all pH values tested, and was therefore a preferred substrate for kinetic studies. […] Reaction mixtures ([…] consisted of 30 μl of 10× pH buffer, final concentration of 0.01 μM enzyme, and Suc-Ala-Pro-pNA to final concentrations between 100 μM to 4 mM.
Kinetic Analysis with Reference Substrates. The activity of each PEP was initially evaluated using the standard chromogenic substrate succinyl-Ala-Pro-pNA. Release of the p-nitroaniline was detected at 410 nm, and kinetic data was fitted to the Michaelis-Menten relationship. Succinyl-Ala-Pro-pNA was selected as a reference substrate instead of the more commonly used Z-Gly-Pro-pNA due to the low solubility of the latter substrate, which necessitated use of co-solvents. The calculated kcat and KM values of FM, MX and SC PEPs for succinyl-Ala-Pro-pNA are tabulated (Table 3). […]

PQPQLPYPQPQLP = assay: Competitive assay of PEP specificity for gliadin peptide versus Suc-Ala-Pro-pNA; assay type: biochemical, wheat; conditions: substrate PQPQLPYPQPQLP, 100 μM each substrate, 0.02 μM PEP, 25° C.
Protocol: Substrate Specificity. In addition to the reference substrates above, enzyme specificity was also evaluated using two immunogenic peptides derived from the sequence of γ-gliadin proteins in gluten. Both peptides were synthesized using solid-phase peptide synthesis. The peptide (SEQ ID NO:4) […] contains the immunodominant γII-epitope, and is resistant to proteolysis by pepsin or any pancreatic enzyme. PEP specificity toward this substrate was assessed in a competitive assay in which 100 μM (SEQ ID NO:4) […] and 100 μM Suc-Ala-Pro-pNA were mixed and reacted with 0.02 μM PEP at 25° C. The initial velocity of Suc-Ala-Pro-pNA cleavage was measured spectrophotometrically, whereas the initial velocity of (SEQ ID NO:4) […] hydrolysis was determined via HPLC. The apparent specificity, kcat/KM, for the hydrolysis of (SEQ ID NO:4) […] could be determined based on the known kcat/KM of the enzyme for Suc-Ala-Pro-pNA and the observed reaction rates of the two substrates. […]
The kcat/KM values of each PEP were determined in an assay mixture containing (SEQ ID NO:4) […] as well as Suc-Ala-Pro-pNA as a competing substrate. The rates of disappearance of both substrates were determined by independent detection methods. The initial rate of disappearance of (SEQ ID NO:4) […] was measured by HPLC, whereas the rate of consumption of Suc-Ala-Pro-pNA was measured spectrophotometrically. […]

[3] = Enzyme activity vs. pH (kcat titration); assay type: biochemical; conditions: 100-4000 μM succinyl-Ala-Pro-pNA
Protocol: FIG. 8. Effect of pH on the turnover numbers (kcat) of FM PEP, MX PEP and SC PEP.
as §1
Enzyme Activity vs. pH. The luminal environment of the duodenum is approximately at pH 6. Therefore, a therapeutically useful PEP must retain high specific activity at that pH. The steady state turnover rate, kcat, of each PEP was titrated in various pH conditions using 100-4000 μM succinyl-Ala-Pro-pNA, shown in FIG. 8. […] Such conformational changes have been implicated in the catalytic cycle of the structurally characterized porcine brain PEP.

Row | Molecule | proliferation of gluten-reactive T cells [1] | Kcat/KM [2] [mM^−1/s^−1] | Kcat/KM (PQPQLPYPQPQLP) [mM^−1/s^−1] | pH range of optimal activity [3]
1 | LQLQPFPQPQLPYPQPQLPYPQPQLPYPQPQPF [33-mer] | strongly stimulates proliferation of gluten-reactive T cells |  |  | 
2 | B1 |  | 146 | 548 | 6-8
